Laboratory results taken from paper PMC5008367.
Substitutions are numbered along the chain they refer to. In names and notes the source's numbering stands. These are yes or no findings as the source states them, for the method shown. In cells and extracts the contact can be indirect. Some binding calls cover weakened binding; strength is not graded here. Sequences can lack the tags named with a protein.

Legend:
glutamylated rGST-DNAJC7 = biological target: T1, glutamylated rGST-DNAJC7 (UniProt Q99615); assay: pull-down; GST-DNAJC7 incubated with lysates from Myc-tagged CCP6-wt and Myc-tagged CCP6-mut 293T cells; repeated three times; only the target purified
T1 sequence (chain, glutamylated (sites and how it was glutamylated not stated)): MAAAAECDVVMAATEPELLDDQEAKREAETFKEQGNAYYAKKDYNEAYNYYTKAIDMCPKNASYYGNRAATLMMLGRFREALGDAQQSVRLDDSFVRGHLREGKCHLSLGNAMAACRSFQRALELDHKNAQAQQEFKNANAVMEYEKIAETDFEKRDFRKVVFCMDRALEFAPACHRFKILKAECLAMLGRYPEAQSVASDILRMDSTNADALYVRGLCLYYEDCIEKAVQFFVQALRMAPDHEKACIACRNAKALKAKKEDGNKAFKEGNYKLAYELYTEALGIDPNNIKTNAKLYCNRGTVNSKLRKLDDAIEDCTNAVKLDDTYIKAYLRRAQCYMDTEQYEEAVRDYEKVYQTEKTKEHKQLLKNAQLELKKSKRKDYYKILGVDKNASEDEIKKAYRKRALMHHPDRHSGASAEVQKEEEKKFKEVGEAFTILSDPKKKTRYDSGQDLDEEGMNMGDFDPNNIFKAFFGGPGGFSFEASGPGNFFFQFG

[1] = biological target: T2, DNAJC7 cotransfected in 293T cells (UniProt Q99615); assay: co-IP; CCP6-mut and DNAJC7 cotransfected in 293T cells; data not shown
T2 sequence: T1 sequence (chain, glutamylated (sites and how it was glutamylated not stated))

B1: Myc-tagged CCP6-mut (H230S/E233Q) in 293T cells (enzyme, UniProt Q5VU57 1-503)
chain: MAEGSQSAPEAGNDMGNDDAIGGNVSKYIVLPTGYCGQPKKGHLIFDACFESGNLGRVDQVSEFEYDLFIRPDTCNPRFRVWFNFTVENVKESQRVIFNIVNFSKTKSLYRDGMAPMVKSTSRPKWQRLPPKNVYYYRCPDHRKNYVMSFAFCFDREEDIYQFAYCYPYTYTRFQHYLDSLQKRNMDYFFREQLGQSVQQRKLDLLTITSPDNLREGAEQKVVFITGRVSPGQTPSSFVCQGIIDFLVSQHPIACVLREYLVFKIAPMLNPDGVYLGNYRCSLMGFDLNRHWLDPSPWVHPTLHGVKQLIVQMYNDPKTSLEFYIDIHAHSTMMNGFMYGNIFEDEERFQRQAIFPKLLCQNAEDFSYSSTSFNRDAVKAGTGRRFLGGLLDHTSYCYTLEVSFYSYIISGTTAAVPYTEEAYMKLGRNVARTFLDYYRLNPVVEKVAIPMPRLRNKEIEVQRRKEKSPPYKHPLLRGPASNYPNSKGDKKSSVNHKDPSTPF
For B1, the binding (glutamylated rGST-DNAJC7) was “binds” and the binding [1] was “binds”.

B2: Myc-tagged CCP6-wt in 293T cells (enzyme, UniProt Q5VU57 1-503)
chain: B1 chain with S230H, Q233E
For B2, the binding (glutamylated rGST-DNAJC7) was “binds”.
